No constants are given. Whether binding was seen depends on the method and setting. Binding seen in cells or lysates may run through a third protein. A result given as binding can be weak or reduced; the word gives no strength. For some assays here: Where a sequence is shown, tags or fusion partners need not be part of it.
What was measured:
[1] = biological target: T1, CHPT-HA (zebrafish CHPT) (zebrafish) (UniProt Q7ZW02); assay: co-IP; Seipin-Flag, CHPT-HA and CCTα-GFP overexpressed together in HEK293T cells; immunoprecipitation with anti-Flag or anti-HA antibodies; immunoblot
T1 sequence: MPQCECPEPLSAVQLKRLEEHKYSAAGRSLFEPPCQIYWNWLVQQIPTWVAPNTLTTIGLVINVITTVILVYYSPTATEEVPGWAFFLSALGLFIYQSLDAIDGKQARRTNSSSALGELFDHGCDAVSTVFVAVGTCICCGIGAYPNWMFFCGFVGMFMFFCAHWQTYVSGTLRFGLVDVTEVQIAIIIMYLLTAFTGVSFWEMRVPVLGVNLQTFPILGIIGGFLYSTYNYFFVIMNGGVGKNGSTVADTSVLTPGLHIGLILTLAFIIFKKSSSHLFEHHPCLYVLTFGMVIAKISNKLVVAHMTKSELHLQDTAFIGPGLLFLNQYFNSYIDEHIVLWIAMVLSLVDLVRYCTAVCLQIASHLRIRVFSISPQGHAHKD

[2] = biological target: Seipin-Flag (zebrafish Seipin) (zebrafish); assay: as above
[3] = biological target: Seipin-Flag (zebrafish Seipin) (zebrafish); assay: co-IP; Seipin-Flag and an HA-tagged partner co-transfected in HEK293T cells, harvested 36 h after transfection; lysate supernatant incubated with anti-HA agarose, anti-FLAG M2 affinity gel or IgG beads; eluted with HA or Flag peptides; immunoblot; in some panels cells treated with OA, BSA and PC (PC promoted the Seipin-Plin2 interaction)
[4] = biological target: Seipin-VN (zebrafish Seipin in the VN173 vector) (zebrafish); assay: split reporter; BiFC: Seipin-VN and a VC-fused partner (with Seipin-RFP) transfected in HEK293T cells; fixed after 36 h, confocal microscopy; cells incubated with BSA or OA

## Seipin-Flag (zebrafish Seipin)
[1]
  binding: binds

## CCTα-GFP (zebrafish CCTα) (enzyme)
[1]
  binding: binds

B1: CHPT-HA (zebrafish CHPT) (enzyme, UniProt Q7ZW02 1-382)
chain: T1 sequence
[2]
  binding: binds
[3]
  binding: binds

B2: CHPT-VC (zebrafish CHPT in the VC155 vector) (enzyme, UniProt Q7ZW02 1-382)
chain: T1 sequence
[4]
  binding: binds
